Legend:
[1] = system: other tumor types (tumor samples vs normal tissues); assay: LC-MS detection / over-presentation of peptides on additional tumor types; set-up: species or system human; settings: for Other relevant organs/diseases: additional tumor types on which the peptide was found: over-presented on more than 5% of measured tumor samples, or presented on more than 5% with ratio of geometric means tumor vs normal tissues larger than 3; for Other relevant organs / diseases (additional tumor types with over-presentation): over-presented on >5% of measured tumor samples, or presented on >5% with ratio of geometric means tumor vs normal >3
NHL samples = assay: Identification and label-free LC-MS quantitation of HLA-presented peptides: presentation profile/score, NHL vs normal tissues; set-up: species or system human; key: very highly over-presented on tumors compared to a panel of normal tissues (+++); highly over-presented on tumors compared to a panel of normal tissues (++); over-presented on tumors compared to a panel of normal tissues (+); settings: NHL tumors compared to a panel of normal tissues

Substance	Other relevant organs/diseases [1]	Other relevant organs / diseases (additional tumor types with over-presentation) [1]	Peptide Presentation (NHL samples)
258 (RIYPFLLMV; listed as Homo sapiens) [compound 258]	NSCLC, SCLC, RCC, HCC, CLL, AML, Melanoma, Urinary bladder cancer, Gallbladder Cancer, Bile Duct Cancer	CRC	+++
121 (YLTGYNFTL; listed as Homo sapiens) [compound 121]	Uterine Cancer	AML	+++
165 (KLLEEIEFL; listed as Homo sapiens) [compound 165]	RCC, AML, BRCA, Melanoma, Esophageal Cancer, Gallbladder Cancer, Bile Duct Cancer		++
47 (GLLPKLTAL; listed as Homo sapiens) [compound 47]	RCC, Brain Cancer, CRC, HCC, AML, Melanoma, Esophageal Cancer, OC, Uterine Cancer	HNSCC	+
200 (YLLDFEDRL; listed as Homo sapiens) [compound 200]	CLL		+
217 (AQFGAVLEV; listed as Homo sapiens) [compound 217]	AML, Melanoma	RCC	+
65 (NLTDVSPDL; listed as Homo sapiens) [compound 65]	CLL, Uterine Cancer		+++
118 (VLDGMIYAI; listed as Homo sapiens) [compound 118]	Uterine Cancer		+++
85 (GLAPAEVVVATVA; listed as Homo sapiens) [compound 85]	CLL, Melanoma		+++
34 (LLWEDGVTEA; listed as Homo sapiens) [compound 34]	CRC, CLL, Melanoma, Esophageal Cancer, Urinary bladder cancer, Uterine Cancer, Gallbladder Cancer, Bile Duct Cancer		+++
125 (FVAPPTAAV; listed as Homo sapiens) [compound 125]	Melanoma, Urinary bladder cancer, Uterine Cancer		+++
265 (ILWHFVASL; listed as Homo sapiens) [compound 265]	CLL, Uterine Cancer	AML	+++
107 (VQAVSIPEV; listed as Homo sapiens) [compound 107]		CLL, AML	+++
41 (ILASIFETV; listed as Homo sapiens) [compound 41]	NSCLC, SCLC, RCC, CLL, AML, BRCA, Melanoma, Urinary bladder cancer, Gallbladder Cancer, Bile Duct Cancer	HNSCC	+++
246 (KLPVPLESV; listed as Homo sapiens) [compound 246]	CLL, Melanoma	AML	+
218 (ALDQFLEGI; listed as Homo sapiens) [compound 218]	CLL, BRCA, Urinary bladder cancer, Uterine Cancer	HNSCC	+
108 (YLAPENGYLM; listed as Homo sapiens) [compound 108]	SCLC, CRC, HCC, BRCA, Melanoma, OC, Urinary bladder cancer, Gallbladder Cancer, Bile Duct Cancer	Uterine Cancer, AML, HNSCC	+++
7 (NLLGMIFSM; listed as Homo sapiens) [compound 7]	CLL, AML, Melanoma, Urinary bladder cancer		+++
216 (KVVSNLPAI; listed as Homo sapiens) [compound 216]	AML, Gallbladder Cancer, Bile Duct Cancer	RCC	+++
132 (VLQDQVDEL; listed as Homo sapiens) [compound 132]	CLL, AML, Melanoma		+++
88 (GLFDNRSGLPEA; listed as Homo sapiens) [compound 88]	Urinary bladder cancer, Uterine Cancer	AML, HNSCC	+++
74 (SLDLRPLEV; listed as Homo sapiens) [compound 74]	RCC, GC		+
169 (SSLEENLLHQV; listed as Homo sapiens) [compound 169]	HCC, CLL		+++
277 (FLIDLNSTHGTFL; listed as Homo sapiens) [compound 277]	CLL		+

Substance	Other relevant organs/diseases [1]	Other relevant organs / diseases (additional tumor types with over-presentation) [1]	Peptide Presentation (NHL samples)
236 (SLFDGFFLTA; listed as Homo sapiens) [compound 236]	CLL, AML, Melanoma, Uterine Cancer	RCC, GC	+
211 (FIDDLFAFV; listed as Homo sapiens) [compound 211]	HCC, CLL, AML, Melanoma		+++
308 (SLLDQIPEM; listed as Homo sapiens) [compound 308]	RCC, CLL, AML, BRCA, Melanoma, OC, Uterine Cancer, Gallbladder Cancer, Bile Duct Cancer	HNSCC	+
224 (FLSPLLPLL; listed as Homo sapiens) [compound 224]	HCC, CLL	AML	+
11 (GLDTVVALL; listed as Homo sapiens) [compound 11]	CRC, CLL, AML, BRCA, Uterine Cancer	HNSCC	+++
16 (TLIAAILYL; listed as Homo sapiens) [compound 16]	CLL, AML, Gallbladder Cancer, Bile Duct Cancer	SCLC, HNSCC	+++
203 (ILDTIFHKV; listed as Homo sapiens) [compound 203]	Melanoma		+++
195 (ALIPDLNQI; listed as Homo sapiens) [compound 195]	Uterine Cancer		+++
69 (TLLAFPLLL; listed as Homo sapiens) [compound 69]	HCC, CLL, AML, Melanoma, Gallbladder Cancer, Bile Duct Cancer	HNSCC	+
15 (IIIEDLLEA; listed as Homo sapiens) [compound 15]	BRCA, Melanoma, Uterine Cancer		+++
32 (VLNEDELPSV; listed as Homo sapiens) [compound 32]	CLL		+++
24 (AVLGFSFRL; listed as Homo sapiens) [compound 24]	CLL	AML	+++
279 (NLAGENILNPL; listed as Homo sapiens) [compound 279]	CLL, Urinary bladder cancer, Uterine Cancer		++
29 (ILSDVTQGL; listed as Homo sapiens) [compound 29]	CLL, BRCA, Uterine Cancer		+++
62 (ALAPYLDLL; listed as Homo sapiens) [compound 62]	AML, Melanoma, Urinary bladder cancer		+++
305 (AMLAQQMQL; listed as Homo sapiens) [compound 305]	CLL, BRCA		+
144 (GLITQVDKL; listed as Homo sapiens) [compound 144]	AML	Esophageal Cancer	+++
1 (LLSGQLPTI; listed as Homo sapiens) [compound 1]	CLL, Uterine Cancer		+++
152 (KIMYTLVSV; listed as Homo sapiens) [compound 152]	HCC	AML	+++
38 (YLTAEILELAGN; listed as Homo sapiens) [compound 38]	NSCLC, SCLC, CRC, HCC, BRCA, Melanoma, Urinary bladder cancer, Uterine Cancer, Gallbladder Cancer, Bile Duct Cancer	HNSCC	+++
53 (FLREYFERL; listed as Homo sapiens) [compound 53]	CLL, Melanoma, Uterine Cancer		+++
254 (FLYSETWNI; listed as Homo sapiens) [compound 254]	HCC, CLL, AML, Melanoma	HNSCC	+++
239 (VLIDDTVLL; listed as Homo sapiens) [compound 239]	HCC, AML, Melanoma	Uterine Cancer	++
